# Measurements from US20200157537.
# Sequences of proteins named here, by UniProt entry; tags and fusion partners are left off.
# UniProt Q8VDS3, whole entry: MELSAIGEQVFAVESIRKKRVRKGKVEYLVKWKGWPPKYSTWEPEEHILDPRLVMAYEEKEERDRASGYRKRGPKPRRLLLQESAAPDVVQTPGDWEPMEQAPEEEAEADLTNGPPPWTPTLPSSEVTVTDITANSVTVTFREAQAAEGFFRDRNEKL
# A weaker result is weaker than the reference pair of the same experiment. The exact form of at least one protein or probe is not confirmed.
# Target: CBX7 (Mus musculus) (UniProt Q8VDS3)
# Experiment: EMSA
# Details: purified recombinant protein
sequence,measurement,setting,value
GTAGCTTTTAGGAACTGTCAGCATGTTGTTGTTGAAGTGTGGAGCTGTAACTCTGCGTGGACTGTGGACAGTCAACAATATGTACTTAAAAGTTGCACTATTGCAA [Calm2 probe + gene-specific LNA mixmers],binding result,"supershift, binding enhanced relative to RNA alone, 8 uM LNA in binding mix, not with control LNA, label: radiolabelled RNA, variant of Calm2 3'UTR EMSA probe",binds
GGGUGUGCGGACCCUCCUCAGAAA [Nucks1-FAM3-Mut],binding result,"label: radiolabelled, variant of Nucks1-FAM3-WT",binds more weakly
GGGAGGUAUAUUCCACCAUAGAG [Larp1-FAM1-Mut],binding result,"label: radiolabelled, variant of Larp1-FAM1-WT",binds more weakly
TCAAATAGAGGAGCTGGGGATTAAAAAGATAGGTCTGATTAAAGGACTGTGCAGTTCAGATAAATAGAGATAATGGGATGCCGTGCGGATAGATTGGTTTTCTCC [Dcaf12l1 probe + gene-specific LNA mixmers],binding result,"supershift, binding enhanced relative to RNA alone, 8 uM LNA in binding mix, not with control LNA, label: radiolabelled RNA, variant of Dcaf12l1 3'UTR EMSA probe",binds
GGCCACTTTGACTCGTGTAGACTCCTTCCTGCTTCTCTCACTAGGGCTTAGACTTCTTGGAACTGTAGGGTGTGAACCCAGAGAC [Dusp9 probe + gene-specific LNA mixmers],binding result,"supershift, binding enhanced relative to RNA alone, 8 uM LNA in binding mix, not with control LNA, label: radiolabelled RNA, variant of Dusp9 3'UTR EMSA probe",binds
GGGAGGUAUAUGUGGACAUAGAG [Larp1-FAM1-WT],binding result,label: radiolabelled,binds
GGGUGUGCGGACGGAGGUCAGAAA [Nucks1-FAM3-WT],binding result,label: radiolabelled,binds
